Measurements reported in PubChem BioAssay AID1259308 (NCATS, 2017)
In all, the deposit lists about 59,000 reagents; shown is a random part of them. Over the whole deposit, about 1,510 (2.6%) got an active call. 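Calls use total luciferase alone and ignore viability, so some active siRNAs may act by altering cell number.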 Not all columns of the deposit are shown.

Aim: 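Knock-downs that increase output of a recombinant reporter protein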 (primary screen)
Cells: human HEK293 embryonic kidney cells stably expressing firefly luciferase (HEK-CMV-Luc2-Hygro)
Reagent: single siRNA against human genes, 0.8 pmol siRNA per well
Time to read-out: 72 h
Measurement: 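Luciferase light (ONE-Glo) measured on one replicate plate set and viability (CellTiter-Glo) on the other, scaled to a negative control siRNA, with robust z-scores and luciferase per cell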
Direction: total luciferase, z-score and total luciferase, % of control: higher = more reporter protein produced
Hit rule: 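Active when the median/MAD z-score for overall luciferase is greater than 3; a gene was taken forward for validation with new siRNAs if at least two of its three siRNAs passed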
Calls: active = raised luciferase; inactive = no rise

target gene	PubChem SID	total luciferase, z-score	total luciferase, % of control	Call
PHRF1 (GeneID 57661)	SID160746519	0.58	93.4	inactive
PHRF1 (GeneID 57661)	SID160746520	0.573	93.3	inactive
PHRF1 (GeneID 57661)	SID160746521	-0.212	77.7	inactive
AGR3 (GeneID 155465)	SID160759503	-0.117	79.6	inactive
AGR3 (GeneID 155465)	SID160759504	-0.337	75.2	inactive
AGR3 (GeneID 155465)	SID160759505	1	102	inactive
RIBC2 (GeneID 26150)	SID160732857	0.47	91.2	inactive
RIBC2 (GeneID 26150)	SID160737704	-0.288	76.2	inactive
RIBC2 (GeneID 26150)	SID160737706	-0.344	75	inactive
MVB12A (GeneID 93343)	SID160724711	-0.0514	80.9	inactive
MVB12A (GeneID 93343)	SID160735210	2.06	123	inactive
MVB12A (GeneID 93343)	SID160754475	-0.0827	80.2	inactive
PAXIP1 (GeneID 22976)	SID160734221	-0.332	75.3	inactive
PAXIP1 (GeneID 22976)	SID160734231	-2.33	35.6	inactive
PAXIP1 (GeneID 22976)	SID160734241	1.27	107	inactive
RWDD4 (GeneID 201965)	SID160761037	0.0653	83.2	inactive
RWDD4 (GeneID 201965)	SID160761038	-0.906	63.9	inactive
RWDD4 (GeneID 201965)	SID160761039	0.221	86.3	inactive
ACKR5 (GeneID 11318)	SID160730448	-0.571	70.5	inactive
ACKR5 (GeneID 11318)	SID160730459	-0.659	68.8	inactive
ACKR5 (GeneID 11318)	SID160730469	-1.88	44.4	inactive
MYLK4 (GeneID 340156)	SID160764376	0.32	88.2	inactive
MYLK4 (GeneID 340156)	SID160764377	-0.815	65.7	inactive
MYLK4 (GeneID 340156)	SID160764378	0.105	84	inactive
METTL3 (GeneID 56339)	SID160745030	-2.18	38.5	inactive
METTL3 (GeneID 56339)	SID160745031	1.55	113	inactive
METTL3 (GeneID 56339)	SID160745032	-0.714	67.7	inactive
MLF1 (GeneID 4291)	SID160777278	0.132	84.5	inactive
MLF1 (GeneID 4291)	SID160777279	-0.736	67.2	inactive
MLF1 (GeneID 4291)	SID160777280	1.23	106	inactive
PRPSAP1 (GeneID 5635)	SID160715083	0.137	84.6	inactive
PRPSAP1 (GeneID 5635)	SID160715085	0.127	84.4	inactive
PRPSAP1 (GeneID 5635)	SID160715086	-1.25	57	inactive
H1-2 (GeneID 3006)	SID160723828	-0.459	72.8	inactive
H1-2 (GeneID 3006)	SID160723829	3.08	143	active
H1-2 (GeneID 3006)	SID160774790	-0.469	72.6	inactive
HOXB1 (GeneID 3211)	SID160775188	1.43	110	inactive
HOXB1 (GeneID 3211)	SID160775189	-0.262	76.7	inactive
HOXB1 (GeneID 3211)	SID160775191	1.98	121	inactive

Already shown: entries from further up.
target gene	PubChem SID	total luciferase, z-score	total luciferase, % of control	Call
MYLK4 (GeneID 340156)	SID160764377	-0.815	65.7	inactive
MYLK4 (GeneID 340156)	SID160764378	0.105	84	inactive
METTL3 (GeneID 56339)	SID160745030	-2.18	38.5	inactive
METTL3 (GeneID 56339)	SID160745031	1.55	113	inactive
METTL3 (GeneID 56339)	SID160745032	-0.714	67.7	inactive
MLF1 (GeneID 4291)	SID160777278	0.132	84.5	inactive
MLF1 (GeneID 4291)	SID160777279	-0.736	67.2	inactive
MLF1 (GeneID 4291)	SID160777280	1.23	106	inactive
PRPSAP1 (GeneID 5635)	SID160715083	0.137	84.6	inactive
PRPSAP1 (GeneID 5635)	SID160715085	0.127	84.4	inactive

Continued.
target gene	PubChem SID	total luciferase, z-score	total luciferase, % of control	Call
HJV (GeneID 148738)	SID160732556	1.97	121	inactive
HJV (GeneID 148738)	SID160758723	1.84	118	inactive
HJV (GeneID 148738)	SID160758724	0.173	85.3	inactive
SENP2 (GeneID 59343)	SID160747006	-1.37	54.6	inactive
SENP2 (GeneID 59343)	SID160747007	0.322	88.3	inactive
SENP2 (GeneID 59343)	SID160747008	-0.057	80.8	inactive
H2AZ2P1 (GeneID 654500)	SID160765783	-1.31	55.8	inactive
H2AZ2P1 (GeneID 654500)	SID160765784	0.185	85.6	inactive
H2AZ2P1 (GeneID 654500)	SID160765785	0.195	85.8	inactive
OR4K5 (GeneID 79317)	SID160748813	0.291	87.7	inactive
OR4K5 (GeneID 79317)	SID160748814	-0.453	72.9	inactive
OR4K5 (GeneID 79317)	SID160748815	1.79	118	inactive
OR8G1 (GeneID 26494)	SID160732868	-1.37	54.6	inactive
OR8G1 (GeneID 26494)	SID160737993	-0.333	75.3	inactive
OR8G1 (GeneID 26494)	SID160737995	0.308	88	inactive
MRPL42 (GeneID 28977)	SID160738912	1.35	109	inactive
MRPL42 (GeneID 28977)	SID160738914	-0.155	78.8	inactive
MRPL42 (GeneID 28977)	SID160738915	-0.629	69.4	inactive
SIRPG (GeneID 55423)	SID160731506	-0.0747	80.4	inactive
SIRPG (GeneID 55423)	SID160743675	-0.0517	80.9	inactive
SIRPG (GeneID 55423)	SID160743676	1.52	112	inactive
ZNF346 (GeneID 23567)	SID160736586	1.33	108	inactive
ZNF346 (GeneID 23567)	SID160736587	1.24	106	inactive
ZNF346 (GeneID 23567)	SID160736588	-1.62	49.6	inactive
AP1S2P2 (GeneID 653653)	SID160771038	-1.05	61	inactive
AP1S2P2 (GeneID 653653)	SID160771040	-0.221	77.5	inactive
AP1S2P2 (GeneID 653653)	SID160771041	-0.0951	80	inactive
SERINC5 (GeneID 256987)	SID160762496	-0.609	69.8	inactive
SERINC5 (GeneID 256987)	SID160762498	0.478	91.4	inactive
SERINC5 (GeneID 256987)	SID160762499	1.16	105	inactive
OR2B3 (GeneID 442184)	SID160768138	1.97	121	inactive
OR2B3 (GeneID 442184)	SID160768139	-0.04	81.1	inactive
OR2B3 (GeneID 442184)	SID160768140	-0.035	81.2	inactive
EPHX2 (GeneID 2053)	SID160761150	-0.105	79.8	inactive
EPHX2 (GeneID 2053)	SID160761161	-0.415	73.6	inactive
EPHX2 (GeneID 2053)	SID160761169	0.0267	82.4	inactive
